From PubChem BioAssay AID588590 (National Center for Advancing Translational Sciences (NCATS), 2011)
Screen size: about 390,000 compounds; about 4,000 (1%) were called active. This list was built around the results that the source calls inconclusive (neither active nor inactive); the mix of calls is not that of the screen. Calls follow the shape of the dose curve; as a rule, active = well fitted inhibition curve with a large enough effect; inconclusive = small, poorly fitted or top-dose-only effect, or another doubt; inactive = no such curve, though single readings can be large or run the other way. Where the call is inconclusive, the potency comes from a doubtful curve fit.

Amino acid sequences for entries named in this document (tags omitted). A change or cut given only in a name is not applied to a line headed by its entry.
UniProt Q9UNA4: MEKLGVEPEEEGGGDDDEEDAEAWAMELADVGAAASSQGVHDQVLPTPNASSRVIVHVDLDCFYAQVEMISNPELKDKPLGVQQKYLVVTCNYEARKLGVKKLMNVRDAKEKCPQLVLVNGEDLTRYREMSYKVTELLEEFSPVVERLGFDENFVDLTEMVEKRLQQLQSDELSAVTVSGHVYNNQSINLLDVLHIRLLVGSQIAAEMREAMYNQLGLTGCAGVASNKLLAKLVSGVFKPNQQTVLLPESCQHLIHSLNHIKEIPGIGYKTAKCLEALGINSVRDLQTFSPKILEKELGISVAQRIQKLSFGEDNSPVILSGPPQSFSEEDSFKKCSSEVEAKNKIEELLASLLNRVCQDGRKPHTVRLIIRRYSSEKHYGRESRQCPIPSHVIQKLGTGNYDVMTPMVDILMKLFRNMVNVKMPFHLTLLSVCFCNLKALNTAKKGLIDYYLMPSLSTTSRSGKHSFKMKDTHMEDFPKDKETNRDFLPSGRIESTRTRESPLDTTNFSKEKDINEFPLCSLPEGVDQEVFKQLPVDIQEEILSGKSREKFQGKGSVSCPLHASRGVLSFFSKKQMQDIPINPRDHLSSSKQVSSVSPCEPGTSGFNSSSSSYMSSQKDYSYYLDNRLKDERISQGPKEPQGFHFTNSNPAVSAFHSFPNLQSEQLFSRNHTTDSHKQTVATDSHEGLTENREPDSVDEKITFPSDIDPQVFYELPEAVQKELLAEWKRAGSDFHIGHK

Biological target: DNA polymerase iota (Homo sapiens) (UniProt Q9UNA4)
Experiment: qHTS for Inhibitors of Polymerase Iota
Conditions: Pol iota fluorescent replication assay, 10 min; series mostly up to 115 µM
In short: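 Fluorescent replication assay read twice, at 0 min and 10 min after adding 50 nM (final) substrate. Enzyme (10 nM) and compounds were first incubated 15 min at room temperature; enzyme-free buffer wells were negative controls.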
Potency is read from the fitted curve at half-maximal effect.

Row | Compound | Potency
1 | C[N+](C)(CCCCCI)c1ccc(/C=C/c2nc3ccccc3s2)cc1 | active: 79.4 µM
2 | CCOc1ccccc1CNCc1c(C(=O)O)c(C)n(Cc2ccc(Cl)cc2)c1C | inactive
3 | Cc1cccc(-n2nnnc2SCC(=O)c2cc(C)n(Cc3ccco3)c2C)c1 | inconclusive: 22.4 µM [inhibitor, full curve, poor fit]
4 | COc1ccc(N2C(C)=CS/C2=C(/C#N)c2nnc(N3CCOCC3)n2-c2ccccc2)cc1 | inconclusive: 89.1 µM [inhibitor, single point]
5 | Cc1[nH][nH]c(=O)c1C(c1ccc(-c2ccc(Cl)c(Cl)c2)o1)c1c(C)[nH][nH]c1=O | active: 3.55 µM
6 | CSc1nc2ccc3nc(NC(=O)c4ccc(Cl)s4)sc3c2s1 | inconclusive: 28.2 µM [inhibitor, single point]
7 | Cc1ccc2c(c1)nnn2C1CCN(CC(=O)Nc2ccccc2N2CCOCC2)CC1 | inconclusive: 70.8 µM [inhibitor, partial curve, poor fit]
8 | COc1cc(/C=C(\C#N)C(=O)Nc2cccc(C(=O)O)c2)ccc1OCc1ccc(Cl)cc1 | inconclusive: 28.2 µM [inhibitor, single point]
9 | COc1ccc(NC(=O)CSc2ncccc2C(=O)O)cc1OC | inconclusive: 0.708 µM [inhibitor, full curve, poor fit]
10 | COc1cc(C(=S)N2CCN(c3ccccc3Cl)CC2)cc(O)c1O | inconclusive: 15.8 µM [inhibitor, partial curve, poor fit]
11 | NC(CCC(=O)O)C12CC3CC(CC(C3)C1)C2 (configuration not stated) | inactive
12 | Cc1cc(NC(=O)c2ccc(NC(=O)c3cccs3)cc2)no1 | inconclusive: 79.4 µM [inhibitor, partial curve, poor fit]
13 | Cc1ccc(NC(=O)COC(=O)c2ccccc2OCC(=O)Nc2ccc(Br)cc2)c(C)c1 | inconclusive: 89.1 µM [inhibitor, single point]
14 | c1ccn2cc(-c3ccc4c(c3)OCCO4)nc2c1 | inconclusive: 31.6 µM [inhibitor, single point]
15 | O=C(CC1SC(=Nc2ccccc2)N(CCc2c[nH]c3ccccc23)C1=O)Nc1ccccc1F (configuration not stated) | inconclusive: 39.8 µM [inhibitor, single point]
16 | Cc1cc(=O)c2c(o1)C(=O)c1occc1C2=O | active: 6.31 µM
17 | COC(=O)C1=C(C)Nc2nnnn2C1c1ccco1 (configuration not stated) | inconclusive: 10 µM [inhibitor, partial curve, poor fit]
18 | O=C(CCN1C(=O)S/C(=C\c2ccccc2)C1=O)Nc1ccc(S(=O)(=O)Nc2nccs2)cc1 | inconclusive: 17.8 µM [inhibitor, full curve, poor fit]
19 | CCN(c1ccccc1)c1cc2ccccc2c(=O)[nH]1 | inconclusive: 28.2 µM [inhibitor, single point]
20 | N#Cc1c2c(c(NCCCN3CCOCC3)n3c1nc1ccccc13)CCC2 | inconclusive: 15.8 µM [inhibitor, partial curve, poor fit]
21 | COc1ccc(CNC(=O)CN2N=C(c3ccccc3)CCC2=O)c(OC)c1 | inactive

Row | Compound | Potency
22 | COc1ccc(CN=C(C)c2c(C(F)(F)F)[nH]n(-c3nc4ccccc4s3)c2=O)cc1 | inactive
23 | Cc1cc(Nc2ccc3c(c2)OCCO3)n2nc(C)nc2n1 | inconclusive: 2.51 µM [inhibitor, partial curve, poor fit]
24 | c1cc(CNC2C3CC4CC(C3)CC2C4)ccn1 (configuration not stated) | inconclusive: 39.8 µM [inhibitor, partial curve, poor fit]
25 | CCC(=O)N1CCc2cc(S(=O)(=O)NC(C(=O)NC(C)c3ccccc3)C(C)C)ccc21 (configuration not stated) | inconclusive: 25.1 µM [inhibitor, single point]
26 | CCOC(=O)c1cnn(-c2nc(SC)nc3sc4c(c23)CCCC4)c1N | inactive
27 | Cc1ccc(NC(=O)CN(C)C(=O)c2ccccc2Cc2ccccc2)cc1 | inconclusive: 100 µM [inhibitor, partial curve, poor fit]
28 | CCNc1nc(C#N)nc(Nc2ccccc2)n1 | inactive
29 | Cc1[nH]n(-c2ncc(-c3ccccc3)s2)c(=O)c1C(c1ccc(Cl)cc1)C(C#N)C#N (configuration not stated) | inconclusive: 15.8 µM [inhibitor, partial curve, poor fit]
30 | CC(C)OC(=O)c1cn(-c2ccccc2)nc1-c1ccco1 | inconclusive: 14.1 µM [inhibitor, partial curve, poor fit]
31 | CCn1ccc(C(=O)NCc2ccc3c(c2)OCO3)n1 | inconclusive: 79.4 µM [inhibitor, single point]
32 | CCNc1sc(C(=O)c2cccs2)c(N)c1C#N | inconclusive: 17.8 µM [inhibitor, full curve, poor fit]
33 | CCOc1ccccc1NC(=O)c1c(NC(=O)c2cccc(C)c2)sc2c1CCCC2 | inactive
34 | CCn1c(CN2c3ccccc3Sc3ccccc32)n[nH]c1=S | inconclusive: 79.4 µM [inhibitor, single point]
35 | COc1cc(S(=O)(=O)N2CCOCC2)ccc1NC(=O)COC(=O)c1ccc(Cl)nc1 | inactive
36 | Cc1ccc(-c2onc3ccc(C(=O)O)cc23)cc1 | inconclusive: 89.1 µM [inhibitor, single point]
37 | O=C(Nc1nnc(-c2ccccc2)s1)C1CCCN(C(=O)c2ccoc2)C1 (configuration not stated) | inactive
38 | O=c1c(S(=O)(=O)c2ccccc2)cn(Cc2ccccc2)c2cc(N3CCOCC3)c(F)cc12 | inconclusive: 100 µM [inhibitor, single point]
39 | CSc1cccc(NS(=O)(=O)c2ccc3c(c2)NC(=O)C(C)C(=O)N3)c1 (configuration not stated) | inconclusive: 3.16 µM [inhibitor, single point]
40 | O=C(Nn1c(COc2ccccc2)nc2ccccc2c1=O)C(Cl)(Cl)Cl | inconclusive: 3.16 µM [inhibitor, partial curve, poor fit]
41 | O=C(O)CSc1c2c(nc3cc(C(=O)Nc4ccc(F)c(Cl)c4)ccc13)CCC2 | active: 50.1 µM
42 | COCCNC(=O)C(c1ccco1)N(C(=O)Cn1nnc2ccccc21)c1ccc(C)cc1C (configuration not stated) | inconclusive: 31.6 µM [inhibitor, single point]

Taken from above:
COCCNC(=O)C(c1ccco1)N(C(=O)Cn1nnc2ccccc21)c1ccc(C)cc1C (configuration not stated) – Potency: inconclusive: 31.6 µM [inhibitor, single point]
Cc1ccc(-c2onc3ccc(C(=O)O)cc23)cc1 – Potency: inconclusive: 89.1 µM [inhibitor, single point]
